Data from the supplement of paper PMC8104966.
Some of the results follow. This data set is noisy: repeats of one test often differ as much as different tests do.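 Fusion between ACE2-bearing and full-length-spike-bearing U2OS cells was measured by imaging as the percentage of nuclei with both cell types' fluorescent markers. An inhibitory hit is a non-toxic compound whose fusion z-score is below -3, more than three standard deviations beneath the plate's DMSO wells.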

test system: U2OS ACE2 x SARS-CoV-2 spike co-culture; assay: cell-cell fusion (fraction fused) z-score vs plate DMSO control; higher = more fusion; settings: 30 µM; 5 h; toxicity class: non-toxic, passed QC

| SMILES | cell-cell fusion (z-score) |
| --- | --- |
| Nc1ccc([As](=O)(O)O)cc1 | inactive: 3.07 |
| CC(=O)[C@@]12O[C@]1(C)CC1C3CC=C4C[C@@H](O)CC[C@]4(C)C3CC[C@@]12C (stereo partly drawn) [16beta-METHYL-16(17)-EPOXY-5-PREGNENOLONE] | inactive: 3.16 |
| O=c1[nH]c2ccccc2n1C1CCN(CCCC(c2ccc(F)cc2)c2ccc(F)cc2)CC1 [Pimozide] | inactive: 1.9 |
| O=C(NC(NC(=S)Nc1ccc(F)c([N+](=O)[O-])c1)C(Cl)(Cl)Cl)C(c1ccccc1)c1ccccc1 (stereo not given) | active: -4.65 |
| COC1=CC(=O)C(O)=C/C1=C\C=C\c1ccccc1 | inactive: 2.17 |
| CS(=O)(=O)O.CSc1ccc2c(c1)C(N1CCN(C)CC1)Cc1ccccc1S2 (stereo not given) [Methiothepin mesylate] | inactive: -1.61 |
| Cc1cc2cc3c(C)cc(=O)oc3c(C)c2o1 [Trioxsalen] | inactive: 2.87 |
| CN(C)CCc1c[nH]c2ccc(Cn3cncn3)cc12.O=C(O)c1ccccc1 [Rizatriptan benzoate salt] | inactive: 1.53 |
| CN(C)CCc1c[nH]c2ccc(Cn3cncn3)cc12.O=C(O)c1ccccc1 | inactive: 0.807 |
| CCCC(=O)NCCc1c2n(c3ccc(OC)cc13)CCCc1ccccc1-2 | inactive: 4.06 |
| CCN(CC)CCOCCOC(=O)C1(c2ccccc2)CCCC1.O=C(O)CC(O)(CC(=O)O)C(=O)O [Carbetapentane citrate] | inactive: 1.78 |
| CCN(CC)CCOCCOC(=O)C1(c2ccccc2)CCCC1.O=C(O)CC(O)(CC(=O)O)C(=O)O | inactive: 0.811 |
| CCCOc1ccccc1-c1nc2[nH]nnc2c(=O)[nH]1 | inactive: 0.568 |
| C=COCC(F)(F)F | inactive: 1.4 |
| O.O.O.O.O.O.O.O=C1CN(/N=C/c2ccc(-c3ccc([N+](=O)[O-])cc3)o2)C(=O)[N-]1.O=C1CN(/N=C/c2ccc(-c3ccc([N+](=O)[O-])cc3)o2)C(=O)[N-]1.[Na+].[Na+] [Dantrolene sodium hemiheptahydrate] | inactive: 2.08 |
| COCCCOc1ccnc(CS(=O)c2nc3ccccc3[n-]2)c1C.[Na+] (stereo not given) [Rebeprazole sodium] | inactive: -0.61 |
| COc1cc2c(cc1OC)Cc1cc(OC)c(OC)cc1Cc1cc(OC)c(OC)cc1C2 | inactive: 1.76 |
| O=NN(CCCl)C(=O)NC1CCCCC1 | inactive: 1.64 |

| SMILES | cell-cell fusion (z-score) |
| --- | --- |
| CN1CCc2cc3c(cc2[C@H]1C1OC(=O)c2c1ccc1c2OCO1)OCO3 (stereo not given in full) | inactive: 2.57 |
| Cc1cc(OC(=O)c2c(C)cc(O)cc2O)cc(O)c1C(=O)O | inactive: 1.94 |
| O=C(O)c1cc2ccccc2[nH]1 | inactive: 5.03 |
| CN(C)C(=O)Oc1ccc[n+](C)c1.[Br-] [Mestinon] | inactive: 3.91 |
| Br.NCc1cc(O)no1 [Muscimol hydrobromide] | inactive: 2.22 |
| Cn1c(=O)c2[nH]cnc2n(C)c1=O.Cn1c(=O)c2[nH]cnc2n(C)c1=O.NCCN [Aminophylline] | inactive: 1.09 |
| Clc1ccc(C2(c3ccc(-c4cn[nH]c4)cc3)CCNCC2)cc1 | inactive: -2.9 |
| NC[C@H](O)c1ccc(O)c(O)c1 [Norepinephrine] | inactive: 0.941 |
| COC(=O)OCOc1c2n(ccc1=O)N(C1c3ccccc3SCc3c1ccc(F)c3F)C1COCCN1C2=O (stereo not given) [Baloxavir marboxil] | inactive: 0.634 |
| CC(=O)N[C@@H](CS)C(=O)O [N-Acetyl-L-Cysteine] | inactive: 1.54 |
| CCCN1C[C@H](CSC)C[C@@H]2c3cccc4[nH]cc(c34)C[C@H]21.CS(=O)(=O)O [Pergolide methanesulfonate] | inactive: -1.22 |
| CC(Cl)(Cl)C(=O)O | inactive: 2.94 |
| COc1ccc(-c2cc(=O)c3c(O)c(OC)c(OC)c(OC)c3o2)cc1OC | inactive: 2.64 |
| O=C1OCCN1/N=C/c1ccc([N+](=O)[O-])o1 [Furazolidone] | inactive: 1.72 |
| Cc1nc(C#Cc2cccnc2)cs1.Cl [MTEP hydrochloride] | inactive: 3.2 |
| CCC1(C2=NCCN2)Cc2ccccc2O1.Cl (stereo not given) [Efaroxan hydrochloride] | inactive: 5.03 |
| CCC1(C2=NCCN2)Cc2ccccc2O1.Cl (stereo not given) | inactive: 1.81 |

Another view of some results above:
SMILES	cell-cell fusion (z-score)
CN1CCc2cc3c(cc2[C@H]1C1OC(=O)c2c1ccc1c2OCO1)OCO3 (stereo not given in full)	inactive: 2.57
O=C(O)c1cc2ccccc2[nH]1	inactive: 5.03
Br.NCc1cc(O)no1 [Muscimol hydrobromide]	inactive: 2.22
NC[C@H](O)c1ccc(O)c(O)c1 [Norepinephrine]	inactive: 0.941
CC(=O)N[C@@H](CS)C(=O)O [N-Acetyl-L-Cysteine]	inactive: 1.54
CC(Cl)(Cl)C(=O)O	inactive: 2.94
COc1ccc(-c2cc(=O)c3c(O)c(OC)c(OC)c(OC)c3o2)cc1OC	inactive: 2.64
O=C1OCCN1/N=C/c1ccc([N+](=O)[O-])o1 [Furazolidone]	inactive: 1.72
Cc1nc(C#Cc2cccnc2)cs1.Cl [MTEP hydrochloride]	inactive: 3.2
CCC1(C2=NCCN2)Cc2ccccc2O1.Cl (stereo not given) [Efaroxan hydrochloride]	inactive: 5.03
